From PubChem BioAssay AID2685 (National Center for Advancing Translational Sciences (NCATS), 2010)
The list shows a part of the results. The main result of the screen is listed elsewhere. These columns were measured beside it and carry no call. Compounds called inactive in the main read-out are mostly missing here. The note in brackets gives the kind of curve behind each potency; many fits are weak.

Assay: qHTS Assay for Lipid Storage Modulators in Drosophila S3 Cells;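 for cell number change: cells counted by Cell Tracker Red CMTPX staining in the red channel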
Conditions: BODIPY lipid droplet fluorescence, 18-24 h; for cell number change: measured here: cell count max response, cells fed with added oleic acid
Outline: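 Drosophila S3 cells got compounds at several concentrations plus oleic acid (400 uM solution). Laser-scanning cytometry with 488 nm excitation read lipid droplets at 500-530 nm and cells at 575-640 nm. Percent activity was relative to 20 uM Triacsin C.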

[1] = measured here: lipid fluorescence (Fed channel) AC50, cells fed with added oleic acid
[2] = measured here: cell number channel AC50, cells fed with added oleic acid

SMILES | cell number change | AC50 [1] | AC50 [2]
CC1(C)CC(=O)C(=Cc2cn(CCC#N)nc2-c2ccc(F)cc2)C(=O)C1 | -23.4% | 29.1 µM [falling, single point] | 
CCN(CC)CCN(C(=O)c1ccc2ccccc2c1)c1nc2ccc(F)cc2s1 | -0.917% |  | 
CC(C)(C)OC(=O)NCCCC[C@@H](C(=O)N1CCN(C(=O)OC(C)(C)C)CC1)n1cc(CCC(=O)O)nn1 | -26.4% |  | 
CCOc1ccc(CN(C)C(C)C(=O)NCCc2ccc(F)cc2)cc1 (stereo not drawn) | 13.4% |  | 
O=S(=O)(c1ccc(Cl)cc1)N1CCCc2ccccc21 | 4.99% | 5.8 µM [falling, full curve] | 
COc1cc(/C=c2\sc3n(c2=O)C(c2ccccc2)C(c2ccccc2)=NN=3)ccc1O (stereo not drawn) | -35.8% |  | 0.82 µM [falling, full curve, poor fit]
Cc1ccc(NS(=O)(=O)c2cc([N+](=O)[O-])ccc2NNC(=S)Nc2cccc(Cl)c2)c(C)c1 | -13.2% | 29.1 µM [falling, single point] | 
COc1ccc(C(=O)Nc2nc3ccccc3[nH]2)cc1 | 15.8% |  | 
COc1cc(NS(=O)(=O)c2ccc(N/C=C(\C=O)c3nc4cc(Cl)ccc4o3)cc2)nc(OC)n1 | -9.21% | 0.00461 µM [rising, full curve, poor fit] | 
COc1cc(C)c(NC(=O)c2cc(C3CC3)nc3c2cnn3C(C)C)cc1OC | -2.52% | 0.92 µM [rising, partial curve] | 
O=C1CC(c2ccc(Cl)cc2)CC(O)=C1C=NCc1ccc(Cl)c(Cl)c1 (stereo not drawn) | -71.7% | 29.1 µM [falling, single point] | 
CCC(=O)N1CC2(C)CN(C(=O)CC)CC(C)(C1)C2 | 0.759% |  | 
Cc1n[nH]c(C)c1N1C(=O)c2cccc3c(Br)ccc(c23)C1=O | -34.2% | 6.51 µM [falling, full curve, poor fit] | 7.31 µM [falling, partial curve, poor fit]
COc1ccc([C@H]2CC(=O)C=C(c3ccc(CNC(=O)OC(C)(C)C)cc3)C2)cc1 | 0.491% | 0.00461 µM [falling, full curve, poor fit] | 0.00411 µM [falling, full curve, poor fit]
COc1cccc(/C=N/NC(=O)c2ccc(COc3ccc(Cl)cc3Cl)o2)c1 | 14.8% |  | 
Cc1cccc(NC(=S)N/C(=N/S(=O)(=O)c2ccccc2)c2ccccc2)c1 | 2.11% | 6.51 µM [rising, single point] | 
CN(C)S(=O)(=O)c1cccc(-c2nnc(-c3ccccc3)o2)c1 | 148% | 2.06 µM [rising, full curve] | 7.31 µM [rising, partial curve]
Cc1ccc2cccc(NC(=O)C(F)(F)F)c2n1 | 33.5% |  | 4.11 µM [rising, partial curve]
Cc1ccc(CN2C(=O)CCC2C(=O)NCC2CCCO2)cc1 (stereo not drawn) | -27.6% | 29.1 µM [falling, single point] | 
COC(=O)c1ccc(Cn2nc(C)cc2C)cc1 |  | 6.51 µM [rising, single point] | 

Compounds above that have a tert-butyl group (two):
SMILES | cell number change | AC50 [1] | AC50 [2]
CC(C)(C)OC(=O)NCCCC[C@@H](C(=O)N1CCN(C(=O)OC(C)(C)C)CC1)n1cc(CCC(=O)O)nn1 | -26.4% |  | 
COc1ccc([C@H]2CC(=O)C=C(c3ccc(CNC(=O)OC(C)(C)C)cc3)C2)cc1 | 0.491% | 0.00461 µM [falling, full curve, poor fit] | 0.00411 µM [falling, full curve, poor fit]

Following part

SMILES | cell number change | AC50 [1] | AC50 [2]
COc1ccc(Cn2nnnc2C(C(C)C)N(Cc2ccco2)Cc2cccs2)cc1 (stereo not drawn) | -24% | 7.31 µM [rising, partial curve] | 
CC(C)c1ccc(-n2nc3ccc(N)cc3n2)cc1 |  | 0.00517 µM [falling, full curve, poor fit] | 2.06 µM [falling, partial curve, poor fit]
Fc1ccc(CNc2ncnc3c2cnn3-c2ccccc2)cc1 | -48.2% | 1.46 µM [rising, full curve] | 18.4 µM [falling, partial curve]
CC(CCc1ccccc1)NC(=O)/C=C/c1ccccc1 (stereo not drawn) | -10.8% | 3.66 µM [rising, full curve, poor fit] | 
CCc1ccc(NC2CC(=O)N(c3ccc(OC)cc3OC)C2=O)cc1 (stereo not drawn) | 2.89% | 6.51 µM [rising, single point] | 
Cc1ccc(O)c(C(=O)c2cc(C#N)c(=O)n(-c3c(C)n(C)n(-c4ccccc4)c3=O)c2)c1 | 22.7% | 29.1 µM [rising, partial curve, poor fit] | 
c1ccc2c(c1)nc1n2C2(N3CCOCC3)CCCC2C1N1CCOCC1 (stereo not drawn) | -27% | 32.6 µM [falling, single point] | 
Cc1n[nH]c(C)c1Cc1c(F)cccc1Cl | 42.4% | 29.1 µM [falling, single point] | 5.17 µM [rising, full curve]
CN(CCc1ccccn1)C(=O)CCc1nnc(CCCc2ccccc2)o1 | 15.1% | 29.1 µM [rising, single point] | 
COc1ccc(Cl)cc1NS(=O)(=O)c1cc(Cl)ccc1OC | -3.94% | 0.58 µM [falling, single point] | 
CCOc1ccc(Br)cc1S(=O)(=O)NCc1ccc(S(N)(=O)=O)cc1 | 157% |  | 
CCCOc1ccc(N2C(=O)CC(N(CCc3ccccc3)C(=O)c3ccccc3)C2=O)cc1 (stereo not drawn) | -36.5% | 16.4 µM [falling, partial curve, poor fit] | 20.6 µM [falling, single point]
COc1ccc(Nc2cc(C)nc3ncnn23)c(OC)c1 | -11.2% | 6.51 µM [falling, partial curve, poor fit] | 
Cc1ccc2nc3c(c(Nc4ccc5c(c4)OCCO5)c2c1)CCC3 |  | 0.731 µM [rising, single point] | 
CC(C)(C)OC(=O)N1CCN(C(=O)c2[nH]cnc2C(=O)NCC(=O)OCc2ccccc2)CC1 | 28.1% |  | 0.184 µM [rising, full curve, poor fit]
CCCCCCC(C)n1[nH]c(=O)c2c(C)cc(=O)[nH]c21 (stereo not drawn) | -95.6% |  | 29.1 µM [falling, single point]
COc1ccc(CCNc2c(C)c(C)nc3ncnn23)cc1 |  | 1.84 µM [falling, partial curve, poor fit] | 
CCOc1ccccc1N1C(=O)CC(Sc2ncccc2C(=O)O)C1=O (stereo not drawn) |  | 6.51 µM [falling, single point] | 6.51 µM [falling, single point]
CC(C)(C)C1N=C(c2ccc3ccccc3c2)OC1=O (stereo not drawn) | -3.73% | 0.206 µM [rising, full curve, poor fit] | 
CS(=O)(=O)N(CC(=O)N/N=C/c1cccc2c1OCCO2)c1ccccc1Br | 11% | 0.461 µM [rising, full curve, poor fit] | 

SMILES | cell number change | AC50 [1] | AC50 [2]
CCOC(=O)c1c(N=CN(C)C)c(C#N)n2c1CCC2 | 7.54% | 18.4 µM [rising, single point] | 
Cc1c(NC(=O)C2CCCCC2)cc(C(=O)N2CCOCC2)cc1[N+](=O)[O-] | 55.1% |  | 16.4 µM [rising, single point]
CCCn1c(SCC(=O)NCCc2ccccc2)nnc1-c1ccccn1 |  | 0.58 µM [rising, single point] | 
O=C(NCc1ccc(F)cc1)c1cc2ccccn2n1 | 2.92% |  | 
O=C(OCC(=O)N1CCN(C(=O)c2ccco2)CC1)c1ccccc1 | -0.95% |  | 0.58 µM [rising, partial curve, poor fit]
Cc1cccc(OCC(=O)N(Cc2ccccc2)c2c(N)n(Cc3ccccc3)c(=O)[nH]c2=O)c1 | -1.37% | 32.6 µM [rising, single point] | 
O=C(CCC(=O)c1cccs1)OCC(=O)c1ccccc1F | -10.7% |  | 
CC(N=C1NS(=O)(=O)c2ccccc21)C(=O)NCc1ccncc1 (stereo not drawn) | -3.5% |  | 
COC(=O)C1CCN(C(=O)c2cc3c(=O)n4cccc(C)c4nc3n2Cc2ccccc2)CC1 | 3.3% | 6.51 µM [falling, single point] | 6.51 µM [falling, single point]
O=S(=O)([O-])CCC[n+]1c(SCCCS(=O)(=O)O)sc2ccc(Cl)cc21 | 79% |  | 29.1 µM [rising, single point]
CCCCC(=NCCc1c(C)[nH]c2ccc(OC)cc12)C1=C(O)CC(c2ccccc2)CC1=O (stereo not drawn) | 25.2% |  | 0.731 µM [rising, full curve]
COc1ccc(Cc2nnc(SCC(=O)c3cccc([N+](=O)[O-])c3)n2C)cc1 | -29.1% |  | 
C=C(C)CSc1nc2ncc(Cl)cc2[nH]1 | 31% |  | 
COc1ccc(-c2cn(-c3ccc(OC)cc3)c3[n+]2-c2ccccc2CC3)cc1 | -55.9% | 4.11 µM [falling, full curve] | 6.51 µM [falling, partial curve]
CCOCC(=O)Nc1ncc(S(=O)(=O)c2ccc([N+](=O)[O-])cc2)s1 | 26.2% | 6.51 µM [rising, single point] | 
COc1ccc(CCN=C(N)NS(=O)(=O)c2ccccc2)cc1OC | -5.65% |  | 
O=C(Nc1nc2c(F)cc(F)cc2s1)c1ccco1 | 6.05% | 29.1 µM [rising, single point] | 
O=C(Nc1cccc(O)c1)c1cc(S(=O)(=O)N2CCCC2)ccc1Cl | -21.6% | 0.82 µM [falling, full curve] | 0.164 µM [falling, full curve, poor fit]
CCC(=O)NCCNc1ccc([N+](=O)[O-])cn1 | -17.2% | 2.59 µM [rising, partial curve] | 2.31 µM [rising, partial curve]
Cc1cccc(C(=O)NC2CC3CCCC(C2)N3Cc2ccccc2)c1 (stereo not drawn) | 11% | 29.1 µM [rising, single point] | 
